PubChem BioAssay AID1224829 | NIAID, 2016
Aim: 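Secondary check of hits that alter LPS-induced p65 translocation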 (follow-up of hits). Cell system: mouse RAW264.7 G9 macrophage reporter cells. Reagents: single siRNA against mouse genes, 100 nM. Time to read-out: 2 days of siRNA knock-down, then 40 min of LPS before fixing. Challenge: LPS (Salmonella minnesota R595) at 10 ng/ml. Measurement: 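High-content images after 40 min LPS exposure; GFP-p65 nucleus to surrounding ring signal ratio, normalised to plate median and non-targeting control wells, expressed as z-score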. Direction: p65 translocation z-score: higher = more nuclear NF-kappaB p65 after LPS. Rule for the call: 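Active means the replicate-mean z-score lies beyond plus or minus 2, in either direction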. Calls: active = changed p65 translocation (either direction); inactive = no clear change.
The whole screen tested about 3,800 reagents; shown is an unselected part. 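Calls cover raised and lowered translocation; gene median uses one vendor's three siRNAs; qiagen siRNAs acted more weakly than ambion siRNAs.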 Further read-outs or replicates are left out here. Reagent sequences are not shown.

With Atp1b1 [SID315483789], siRNA vendor or control pool ambion single siRNA, the values are p65 translocation z-score, replicate mean -0.422; inactive. Atp1b1 [SID315483790], siRNA vendor or control pool ambion single siRNA gave p65 translocation z-score, replicate mean 1.28; inactive. With Atp1b1 [SID315483791], siRNA vendor or control pool ambion single siRNA, the values are p65 translocation z-score, replicate mean -2.32; active. With Atp1b1 [SID315483792], siRNA vendor or control pool qiagen single siRNA, the entry reads p65 translocation z-score, replicate mean 1.37; inactive. With Atp1b1 [SID315483793], siRNA vendor or control pool qiagen single siRNA, the values are p65 translocation z-score, replicate mean 0.249; inactive. Atp1b1 [SID315483794], siRNA vendor or control pool qiagen single siRNA showed p65 translocation z-score, replicate mean -3.41; active.

Casp4 [SID315483885], siRNA vendor or control pool ambion single siRNA showed p65 translocation z-score, replicate mean -2.48; active. For Casp4 [SID315483886], siRNA vendor or control pool ambion single siRNA, the entry reads p65 translocation z-score, replicate mean -2.32; active. With Casp4 [SID315483887], siRNA vendor or control pool ambion single siRNA, the entry reads p65 translocation z-score, replicate mean -5.31; active. For Casp4 [SID315483888], siRNA vendor or control pool qiagen single siRNA, the values are p65 translocation z-score, replicate mean 1.33; inactive. For Casp4 [SID315483889], siRNA vendor or control pool qiagen single siRNA the deposit lists p65 translocation z-score, replicate mean 1.21; inactive. Casp4 [SID315483890], siRNA vendor or control pool qiagen single siRNA scored p65 translocation z-score, replicate mean 0.519; inactive.

With Tuba3b [SID315485058], siRNA vendor or control pool ambion single siRNA the deposit lists p65 translocation z-score, replicate mean -0.175; inactive. Tuba3b [SID315485059], siRNA vendor or control pool ambion single siRNA scored p65 translocation z-score, replicate mean -1.7; inactive. Tuba3b [SID315485060], siRNA vendor or control pool ambion single siRNA showed p65 translocation z-score, replicate mean -2.77; active. Tuba3b [SID315485061], siRNA vendor or control pool qiagen single siRNA scored p65 translocation z-score, replicate mean 1.41; inactive. With Tuba3b [SID315485062], siRNA vendor or control pool qiagen single siRNA the deposit lists p65 translocation z-score, replicate mean 0.823; inactive. For Tuba3b [SID315485063], siRNA vendor or control pool qiagen single siRNA the deposit lists p65 translocation z-score, replicate mean -3.01; active.

Looked up above:
Result for Atp1b1 [SID315483790], siRNA vendor or control pool ambion single siRNA in “p65 translocation z-score, replicate mean”: 1.28
Result for Tuba3b [SID315485060], siRNA vendor or control pool ambion single siRNA under “p65 translocation z-score, replicate mean”: -2.77
Value of Casp4 [SID315483887], siRNA vendor or control pool ambion single siRNA in “p65 translocation z-score, replicate mean”: -5.31

The listing continues:
With Ogt [SID315487503], siRNA vendor or control pool ambion single siRNA, the values are p65 translocation z-score, replicate mean -1.23; inactive. Ogt [SID315487504], siRNA vendor or control pool ambion single siRNA scored p65 translocation z-score, replicate mean -1.14; inactive. Ogt [SID315487505], siRNA vendor or control pool ambion single siRNA showed p65 translocation z-score, replicate mean -2.55; active. Ogt [SID315487506], siRNA vendor or control pool qiagen single siRNA scored p65 translocation z-score, replicate mean 0.908; inactive. For Ogt [SID315487507], siRNA vendor or control pool qiagen single siRNA, the values are p65 translocation z-score, replicate mean 0.123; inactive. Ogt [SID315487508], siRNA vendor or control pool qiagen single siRNA scored p65 translocation z-score, replicate mean 3.19; active.

For Rab32 [SID315486504], siRNA vendor or control pool ambion single siRNA the deposit lists p65 translocation z-score, replicate mean 0.763; inactive. For Rab32 [SID315486505], siRNA vendor or control pool ambion single siRNA, the values are p65 translocation z-score, replicate mean 0.818; inactive. With Rab32 [SID315486506], siRNA vendor or control pool ambion single siRNA the deposit lists p65 translocation z-score, replicate mean -3.51; active. With Rab32 [SID315486507], siRNA vendor or control pool qiagen single siRNA, the entry reads p65 translocation z-score, replicate mean 0.877; inactive. With Rab32 [SID315486508], siRNA vendor or control pool qiagen single siRNA, the values are p65 translocation z-score, replicate mean -1.35; inactive. Rab32 [SID315486509], siRNA vendor or control pool qiagen single siRNA scored p65 translocation z-score, replicate mean -1.92; inactive.
